Data: patent US20110112012A1 (UNIVERSITY OF GEORGIA STUDIES RESEARCH FOUNDATION, published 2011)
These are yes or no findings as the source states them, for the method shown. Some entries that bind do so weakly or less than the wild type.

T1: Cry4Ba toxin (Cry4BRA mutant, R203 replaced by A) of Bacillus thuringiensis israelensis (Bacillus thuringiensis israelensis) (UniProt P05519)
T1 sequence: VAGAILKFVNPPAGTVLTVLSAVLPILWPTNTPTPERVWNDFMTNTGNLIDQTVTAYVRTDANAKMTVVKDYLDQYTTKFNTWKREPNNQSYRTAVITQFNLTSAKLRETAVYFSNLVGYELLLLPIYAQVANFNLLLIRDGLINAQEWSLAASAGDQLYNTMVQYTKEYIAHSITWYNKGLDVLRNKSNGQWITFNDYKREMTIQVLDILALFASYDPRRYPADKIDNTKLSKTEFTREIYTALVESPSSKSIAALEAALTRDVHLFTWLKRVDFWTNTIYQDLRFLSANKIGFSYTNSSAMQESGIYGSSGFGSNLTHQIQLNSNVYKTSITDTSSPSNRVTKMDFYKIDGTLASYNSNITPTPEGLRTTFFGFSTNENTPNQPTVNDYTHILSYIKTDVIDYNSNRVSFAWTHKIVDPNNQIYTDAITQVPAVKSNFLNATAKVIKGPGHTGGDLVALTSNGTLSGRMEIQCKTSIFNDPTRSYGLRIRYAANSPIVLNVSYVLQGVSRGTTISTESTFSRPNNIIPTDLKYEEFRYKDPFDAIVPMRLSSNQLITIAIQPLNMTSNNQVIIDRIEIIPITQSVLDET


Biological target: T1, Cry4Ba toxin (Cry4BRA mutant, R203 replaced by A) of Bacillus thuringiensis israelensis (Bacillus thuringiensis israelensis)
Assay: microplate ELISA, Cry4Ba coated, biotinylated fragment

| Binder | binding |
| --- | --- |
| CR11-MPED peptide of AgCad1 (amino acids 1358G to 1569A), expressed in E. coli (Biotinylated with sulfo-NHS-PC-biotin for the microplate assay; also called AgCad CR11-MPED; AgCad-CR11-MPED) GITTNDRVPKALFRVYAEDPDEDEIIRYELVNGTAVGENLQTDGLPFRLHPDSGELTLTSKVQPNQNGYYQLTLIAFDRDDTHNDTVPAKVYIVSESNRVTFVFLNSVEEIDQPDVRKFLAQELTGAYEMECNIDDIDQTTASDGRQAGGSSSALTDVRTHFIQDNQAVEASRIQQRSSNRTFVTVLKTTLRTRGLSLQDVPPLATEALTEA | binds |
| CR9-11 fragment of AgCad1, expressed in E. coli (Biotinylated for the microplate assay; also called AgCad CR9-11; AgCad-CR9-11) GSPLPKFEAIDDDGGIYGDVTFSLTSTNDGEQDHEVFRVDKVDNKTGLLVLENSLAVQPFPKNYSITVIARDGGDRQSEAAIHVVFINMTGEPAFLEPTFDTDFTENEEGRDERRQLPFAEDPKNAGLPPGAETNVYYFIDKTYGNASHLFQLDRVSNVLQLAQLLDREEIPTPEIRIVATNNENSPPDTVLESSPSLLVVRIKVNDVNDNPPVFQQRLYAAGITTNDRVPKALFRVYAEDPDEDEIIRYELVNGTAVGENLQTDGLPFRLHPDSGELTLTSKVQPNQNGYYQLTLIAFDRDDTHNDTVPAKVYIVSESNRVTFVF | binds |
